PubChem BioAssay AID1259298 – Sanger Institute | 2017
Shown is one part, drawn at random, of 794 reagents. In the full data, 20 (2.5%) are marked active. 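Calls rest only on the knock-down-alone score; drug synergy scores played no part in them.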 No viability above 1 is reported: the scale is capped. Further read-outs or replicates are left out here. Not given: the amount of reagent, the time to read-out.

Purpose: 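Kinome knock-downs lethal on their own or synergising with anchor drugs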 (primary screen)
System: HT55 human colorectal cancer cell line
Reagents: siRNA pool against human genes
Conditions: anchor drug BYL719 1 µM, cetuximab 5 µg/ml or trametinib 10 nM, or DMSO vehicle alone
Read-out: 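Replicate-averaged viability versus wells of non-targeting pool; knock-down-only robust z-score; per-drug synergy score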
Direction: robust z-score, knock-down alone: higher = more cells remaining; low means essential gene; viability vs control pool, no drug: higher = more viable cells; synergy score with BYL719 and synergy score with cetuximab: higher = stronger synthetic lethality with the drug
Hit rule: 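a gene counts as essential if its knock-down-alone robust z-score falls under -3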
Calls: active = essential (knock-down alone); inactive = no change alone

target gene	robust z-score, knock-down alone	viability vs control pool, no drug (fraction)	synergy score with BYL719	synergy score with cetuximab	outcome
NEK7	0.58	1	-0.218	-0.184	inactive
FGFR2	0.58	1	-0.153	0.0137	inactive
PNCK	0.416	0.987	-0.233	-0.222	inactive
SF3B1	-2.51	0.759	-0.197	-0.0154	inactive
PIP5K1C	-1.09	0.869	-0.168	-0.108	inactive
ELP1	0.58	1	-0.183	-0.186	inactive
STKLD1	-0.528	0.913	-0.0827	-0.0964	inactive
PIK3C3	0.58	1	-0.18	0.0191	inactive
FXR1	0.58	1	-0.145	-0.0752	inactive
KRAS	0.58	1	0.0014	0.0516	inactive
PIP4K2A	0.548	0.998	-0.262	-0.152	inactive
TGFBR2	-0.0585	0.95	-0.115	-0.0875	inactive
FGR	0.211	0.971	-0.0515	-0.0169	inactive
CDK7	0.58	1	-0.103	-0.211	inactive
MAP3K13	0.58	1	-0.152	-0.0191	inactive
PDK4	0.58	1	-0.211	-0.123	inactive
AURKB	0.201	0.97	0.0249	-0.0145	inactive
MAST4	0.58	1	-0.0762	-0.211	inactive
PTPN11	0.58	1	-0.174	-0.0019	inactive
ATRX	0.58	1	-0.272	-0.211	inactive
GRK4	-1.39	0.846	-0.118	-0.229	inactive
STK31	0.58	1	-0.0982	-0.158	inactive
PIM2	-0.192	0.94	-0.123	-0.00725	inactive
DGKD	0.58	1	-0.163	-0.193	inactive
VRK1	0.58	1	-0.262	-0.205	inactive
MAPKAPK5	0.216	0.972	-0.117	-0.234	inactive
MASTL	0.58	1	-0.14	0.0383	inactive
CHKA	-1.48	0.839	-0.184	-0.257	inactive
HK3	-0.338	0.928	-0.198	-0.252	inactive
NME3	0.58	1	-0.0814	0.00344	inactive
DYRK1A	0.58	1	-0.272	-0.0513	inactive
RPS6KA6	0.58	1	-0.172	-0.211	inactive
MTOR	0.58	1	-0.21	-0.211	inactive
RET	0.58	1	-0.256	-0.193	inactive
GRK3	0.58	1	-0.216	-0.211	inactive
NME5	-1.19	0.862	-0.301	-0.192	inactive
BRSK2	0.58	1	-0.216	-0.128	inactive
CAMK2A	0.58	1	-0.19	-0.142	inactive
IGF1R	-1.1	0.869	0.0503	-0.119	inactive
NEK9	0.0868	0.961	-0.0996	-0.103	inactive
DGKH	0.58	1	-0.17	-0.015	inactive
BMP2K	-1.9	0.806	-0.178	0.0872	inactive
RIOK2	0.58	1	-0.161	-0.101	inactive
PRKCZ	-2.95	0.724	-0.0571	-0.141	inactive
LIMK1	0.58	1	-0.211	0.0514	inactive
EPHB2	0.58	1	-0.19	-0.0689	inactive
MAP2K6	0.58	1	-0.116	-0.113	inactive
NME4	0.58	1	-0.0113	-0.0653	inactive
GUCY2EP	-0.182	0.94	-0.0656	0.0875	inactive
PKN1	0.58	1	-0.272	-0.211	inactive
CALM3	-0.859	0.887	-0.354	-0.145	inactive
VRK2	0.58	1	-0.114	-0.0642	inactive
PRKAG3	-4.79	0.58	-0.161	-0.124	active
SIK3	0.58	1	-0.272	-0.194	inactive
PFKM	0.222	0.972	-0.0612	-0.0924	inactive
TRIM27	-0.169	0.941	-0.247	-0.254	inactive
NUP107	-3.4	0.689	-0.306	-0.222	active
PRKD3	0.119	0.964	-0.0695	-0.0303	inactive
TGFBR1	0.58	1	-0.198	-0.211	inactive
MAPK15	0.58	1	-0.272	-0.0859	inactive
ETNK2	-0.2	0.939	-0.207	-0.215	inactive
DAPK3	-0.478	0.917	0.0499	-0.156	inactive
PIK3R4	0.58	1	-0.0113	-0.156	inactive

Records listed above marked active, once more:
target gene	robust z-score, knock-down alone	viability vs control pool, no drug (fraction)	synergy score with BYL719	synergy score with cetuximab	outcome
PRKAG3	-4.79	0.58	-0.161	-0.124	active
NUP107	-3.4	0.689	-0.306	-0.222	active
